Data taken from the supplement of paper PMC12889115.
The list shows a part of the results. These are raw signals, not scaled to a control.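 In the initial screen, polymyxin B was used at a concentration that permeabilizes Salmonella's outer membrane but not its inner membrane. Maximum growth was set by DMSO wells with or without polymyxin B. Since plates varied, data were ranked per plate, and compounds giving the lowest OD600 advanced as hits.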

System: Salmonella enterica serovar Typhimurium SL1344
Assay: bacterial growth OD600 after 18 h with compound and polymyxin B; higher = more bacterial growth (less inhibition)
Details: 50 µM, Mueller-Hinton broth

Compound | bacterial growth OD600 (polymyxin B 0.75 µg/mL) | bacterial growth OD600 (polymyxin B 1 µg/mL)
CCS(=O)(=O)Nc1cccc(N2CCC(NCc3cccc(OC(F)(F)F)c3)CC2)c1 | 0.799 | –
COc1ccc(CC2CN(C(=O)CN3CCCCCC3)CCO2)cc1 (stereo not given) | 0.995 | –
Cc1cccc(CNC2CC(=O)N(CCCc3ccccc3)C2)n1 (stereo not given) | – | 0.968
Cc1oc(-c2cccc(NC(=O)CCc3cccnc3)c2)nc1CNC(=O)c1cc2cc(F)ccc2[nH]1 | 0.571 | –
CC(C)(CO)CN1CCCC(C(=O)Nc2ccccc2Oc2cccnc2)C1 (stereo not given) | 0.779 | –
O=C(NCc1cccnc1N1CCc2ccccc2C1)c1cscn1 | 0.712 | –
CCOC(c1ccccc1)c1ccc2c(c1)CN(Cc1c(C)n(C)n(-c3ccccc3)c1=O)CCO2 (stereo not given) | 0.779 | –
NC(=O)[C@@H]1CCCN1C1CCN(c2cccc(NS(=O)(=O)c3ccc(F)cc3)c2)CC1 | 0.814 | –
O=C(Cn1cccn1)N1CCC2(CCCN(CC3CCCCC3)C2=O)C1 (stereo not given) | – | 1.01
C[C@@H]1CN(C2(C(=O)NC3CCCC3)Cc3ccccc3C2)C[C@H](C)O1 | 0.825 | –
CC(=O)N1CCC(C(=O)Nc2ccc(Oc3ccccc3F)cc2)CC1 | – | 0.916
COc1ccccc1CNC(=O)c1c(OC)cc(=O)n2c1CCN(Cc1ccccc1F)CC2 | 0.816 | –
O=C(c1cc(-c2ccccc2)n[nH]1)N1CCC(n2c(CCc3ccccc3)nc3cccnc32)CC1 | 0.015 | –
CC(C)S(=O)(=O)N1CCc2onc(C(c3ccccc3)c3ccccc3)c2C1 | 0.491 | –
CN(C(=O)c1ccn(C)n1)C(Cc1ccccc1)C1CCN(Cc2ccc(C#CC(C)(C)O)cc2)CC1 (stereo not given) | 0.933 | –
Cc1c(C(C)NC2CCN(Cc3cccnc3)CC2)cnn1-c1ccc(F)cc1F (stereo not given) | – | 0.982
O=C(NC1CCC1)c1coc(COc2ccccc2)n1 | – | 0.88
OCC1(CCCc2ccccc2)CCCN(C2CSCCSC2)C1 (stereo not given) | 0.427 | –
CN(C)S(=O)(=O)N1CCc2[nH]nc(-c3ccccc3F)c2C1 | 0.819 | –
COc1ccc(CNC(=O)CCC2CCCN(C(=O)Cc3cccs3)C2)c(OC)c1 (stereo not given) | 0.812 | –

As entered above.
Value for CC(C)(CO)CN1CCCC(C(=O)Nc2ccccc2Oc2cccnc2)C1 (stereo not given) under bacterial growth OD600 (polymyxin B 0.75 µg/mL): 0.779
Value for COc1ccc(CNC(=O)CCC2CCCN(C(=O)Cc3cccs3)C2)c(OC)c1 (stereo not given) under bacterial growth OD600 (polymyxin B 0.75 µg/mL): 0.812
